Reference: the supplement of paper PMC8728848
The list shows a part of the results.

Assays:
Test in all cases: glycan array binding signal (z-score within array); higher = stronger binding
Conditions in all cases: glycan notation: IUPAC condensed, linker removed
[1] = target: Neu5Ac(a2-3)GalNAc
Outline: (§1)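 Glycan array data were curated from 3228 arrays in the Consortium for Functional Glycomics database and kept only where the protein sequence was available. Glycan names were converted to IUPAC-condensed notation, and columns mapping to the same glycan were averaged. The binding signal is a within-array Z-score, averaged across arrays of the same protein sequence at different concentrations or buffers and across linkers. Negative Z-scores can be read as non-binding.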

[2] = target: Neu5Ac(a2-3)GalNAc(b1-4)GlcNAc
Outline: as §1

[3] = target: Neu5Ac(a2-3)[GalNAc(b1-4)]Gal(b1-4)Glc
Outline: as §1

[4] = target: Neu5Ac(a2-3)[GalNAc(b1-4)]Gal(b1-4)GlcNAc
Outline: as §1

[5] = target: Neu5Ac(a2-3)[GalNAc(b1-4)]Gal(b1-4)GlcNAc(b1-3)GalNAc
Outline: as §1

[6] = target: Neu5Ac(a2-3)[Neu5Ac(a2-6)]GalNAc
Outline: as §1

[7] = target: Neu5Ac(a2-6)Gal
Outline: as §1

[8] = target: Neu5Ac(a2-6)Gal(b1-3)GlcNAc(b1-3)[Gal(b1-4)GlcNAc(b1-6)]Gal(b1-4)Glc
Outline: as §1

[9] = target: Neu5Ac(a2-6)Gal(b1-4)Glc
Outline: as §1

[10] = target: Neu5Ac(a2-6)Gal(b1-4)GlcNAc
Outline: as §1

[11] = target: Neu5Ac(a2-6)Gal(b1-4)GlcNAc(b1-2)Man
Outline: as §1

[12] = target: Neu5Ac(a2-6)Gal(b1-4)GlcNAc(b1-2)Man(a1-3)Man(b1-4)GlcNAc(b1-4)GlcNAc
Outline: as §1

[13] = target: Neu5Ac(a2-6)Gal(b1-4)GlcNAc(b1-2)Man(a1-3)[Gal(b1-4)GlcNAc(b1-2)Man(a1-6)]Man(b1-4)GlcNAc(b1-4)GlcNAc
Outline: as §1

[14] = target: Neu5Ac(a2-6)Gal(b1-4)GlcNAc(b1-2)Man(a1-3)[GlcNAc(b1-2)Man(a1-6)]Man(b1-4)GlcNAc(b1-4)GlcNAc
Outline: as §1

[15] = target: Neu5Ac(a2-6)Gal(b1-4)GlcNAc(b1-2)Man(a1-3)[GlcNAc(b1-4)][Neu5Ac(a2-6)Gal(b1-4)GlcNAc(b1-2)Man(a1-6)]Man(b1-4)GlcNAc(b1-4)GlcNAc
Outline: as §1

[16] = target: Neu5Ac(a2-6)Gal(b1-4)GlcNAc(b1-2)Man(a1-3)[Man(a1-6)]Man(b1-4)GlcNAc(b1-4)GlcNAc
Outline: as §1

[17] = target: Neu5Ac(a2-6)Gal(b1-4)GlcNAc(b1-2)Man(a1-3)[Neu5Ac(a2-3)Gal(b1-4)GlcNAc(b1-2)Man(a1-6)]Man(b1-4)GlcNAc(b1-4)GlcNAc
Outline: as §1

[18] = target: Neu5Ac(a2-6)Gal(b1-4)GlcNAc(b1-2)Man(a1-3)[Neu5Ac(a2-6)Gal(b1-4)GlcNAc(b1-2)Man(a1-6)]Man(b1-4)GlcNAc(b1-4)GlcNAc
Outline: as §1

[19] = target: Neu5Ac(a2-6)Gal(b1-4)GlcNAc(b1-2)Man(a1-3)[Neu5Ac(a2-6)Gal(b1-4)GlcNAc(b1-2)Man(a1-6)]Man(b1-4)GlcNAc(b1-4)[Fuc(a1-6)]GlcNAc
Outline: as §1

[20] = target: Neu5Ac(a2-6)Gal(b1-4)GlcNAc(b1-2)Man(a1-6)Man(b1-4)GlcNAc(b1-4)GlcNAc
Outline: as §1

[21] = target: Neu5Ac(a2-6)Gal(b1-4)GlcNAc(b1-2)Man(a1-6)[Gal(b1-4)GlcNAc(b1-2)Man(a1-3)]Man(b1-4)GlcNAc(b1-4)GlcNAc
Outline: as §1

[22] = target: Neu5Ac(a2-6)Gal(b1-4)GlcNAc(b1-2)Man(a1-6)[GlcNAc(b1-2)Man(a1-3)]Man(b1-4)GlcNAc(b1-4)GlcNAc
Outline: as §1

[23] = target: Neu5Ac(a2-6)Gal(b1-4)GlcNAc(b1-2)Man(a1-6)[Man(a1-3)]Man(b1-4)GlcNAc(b1-4)GlcNAc
Outline: as §1

[24] = target: Neu5Ac(a2-6)Gal(b1-4)GlcNAc(b1-2)[Neu5Ac(a2-6)Gal(b1-4)GlcNAc(b1-4)]Man(a1-3)[GlcNAc(b1-4)][Neu5Ac(a2-6)Gal(b1-4)GlcNAc(b1-2)[Neu5Ac(a2-6)Gal(b1-4)GlcNAc(b1-6)]Man(a1-6)]Man(b1-4)GlcNAc(b1-4)GlcNAc
Outline: as §1

[25] = target: Neu5Ac(a2-6)Gal(b1-4)GlcNAc(b1-2)[Neu5Ac(a2-6)Gal(b1-4)GlcNAc(b1-4)]Man(a1-3)[GlcNAc(b1-4)][Neu5Ac(a2-6)Gal(b1-4)GlcNAc(b1-4)Man(a1-6)]Man(b1-4)GlcNAc(b1-4)GlcNAc
Outline: as §1

[26] = target: Neu5Ac(a2-6)Gal(b1-4)GlcNAc(b1-2)[Neu5Ac(a2-6)Gal(b1-4)GlcNAc(b1-6)]Man(a1-6)[Neu5Ac(a2-6)Gal(b1-4)GlcNAc(b1-2)Man(a1-3)][GlcNAc(b1-4)]Man(b1-4)GlcNAc(b1-4)GlcNAc
Outline: as §1

[27] = target: Neu5Ac(a2-6)Gal(b1-4)GlcNAc(b1-3)Gal(b1-3)GlcNAc
Outline: as §1

[28] = target: Neu5Ac(a2-6)Gal(b1-4)GlcNAc(b1-3)Gal(b1-4)GlcNAc
Outline: as §1

[29] = target: Neu5Ac(a2-6)Gal(b1-4)GlcNAc(b1-3)Gal(b1-4)GlcNAc(b1-2)Man(a1-3)[Neu5Ac(a2-6)Gal(b1-4)GlcNAc(b1-3)Gal(b1-4)GlcNAc(b1-2)Man(a1-6)]GalNAc
Outline: as §1

[30] = target: Neu5Ac(a2-6)Gal(b1-4)GlcNAc(b1-3)Gal(b1-4)GlcNAc(b1-3)Gal(b1-4)GlcNAc
Outline: as §1

[31] = target: Neu5Ac(a2-6)Gal(b1-4)GlcNAc(b1-3)Gal(b1-4)GlcNAc(b1-3)Gal(b1-4)GlcNAc(b1-2)Man(a1-3)[Neu5Ac(a2-6)Gal(b1-4)GlcNAc(b1-3)Gal(b1-4)GlcNAc(b1-3)Gal(b1-4)GlcNAc(b1-2)Man(a1-6)]GalNAc
Outline: as §1

[32] = target: Neu5Ac(a2-6)Gal(b1-4)GlcNAc(b1-3)Gal(b1-4)GlcNAc(b1-3)GalNAc
Outline: as §1

[33] = target: Neu5Ac(a2-6)Gal(b1-4)GlcNAc(b1-3)Gal(b1-4)GlcNAc(b1-3)[Neu5Ac(a2-6)Gal(b1-4)GlcNAc(b1-3)Gal(b1-4)GlcNAc(b1-6)]GalNAc
Outline: as §1

[34] = target: Neu5Ac(a2-6)Gal(b1-4)GlcNAc(b1-3)Gal(b1-4)GlcNAc(b1-6)[Gal(b1-3)]GalNAc
Outline: as §1

[35] = target: Neu5Ac(a2-6)Gal(b1-4)GlcNAc(b1-3)Gal(b1-4)[Fuc(a1-3)]GlcNAc(b1-3)Gal(b1-4)[Fuc(a1-3)]GlcNAc
Outline: as §1

[36] = target: Neu5Ac(a2-6)Gal(b1-4)GlcNAc(b1-3)GalNAc
Outline: as §1

[37] = target: Neu5Ac(a2-6)Gal(b1-4)GlcNAc(b1-3)[Neu5Ac(a2-6)Gal(b1-4)GlcNAc(b1-6)]GalNAc
Outline: as §1

[38] = target: Neu5Ac(a2-6)Gal(b1-4)GlcNAc(b1-6)GalNAc
Outline: as §1

[39] = target: Neu5Ac(a2-6)Gal(b1-4)GlcNAc(b1-6)[Gal(b1-3)GlcNAc(b1-3)]Gal(b1-4)Glc
Outline: as §1

[40] = target: Neu5Ac(a2-6)Gal(b1-4)GlcNAc(b1-6)[Gal(b1-3)]GalNAc
Outline: as §1

[41] = target: Neu5Ac(a2-6)Gal(b1-4)GlcNAc6S
Outline: as §1

[42] = target: Neu5Ac(a2-6)GalNAc
Outline: as §1

[43] = target: Neu5Ac(a2-6)GalNAc(b1-4)GlcNAc
Outline: as §1

[44] = target: Neu5Ac(a2-6)GalNAc(b1-4)GlcNAc6S
Outline: as §1

[45] = target: Neu5Ac(a2-6)GlcNAc(b1-4)GlcNAc
Outline: as §1

B1: Clone646PsrP (Streptococcus pneumoniae) (protein)
chain: MDHHHHHHHHASENLYFQGAPAINASLNIAKSETKVYTGEGVDSVYRVPIYYKLKVTNDGSKLTFTYTVTYVNPKTNDLGNISSMRPGYSIYNSGTSTQTMLTLGSDLGKPSGVKNYITDKNGRQVLSYNTSTMTTQGSGYTWGNGAQMNGFFAKKGYGLTSSWTVPITGTDTSFTFTPYAARTDRIGINYFNGGGKVVESSTTSQSLSQSKSLSVSAS
- glycan array binding signal (z-score) [1]: 0.419
- glycan array binding signal (z-score) [2]: -0.469
- glycan array binding signal (z-score) [3]: -0.703
- glycan array binding signal (z-score) [4]: -0.733
- glycan array binding signal (z-score) [5]: 0.037
- glycan array binding signal (z-score) [6]: 0.674
- glycan array binding signal (z-score) [7]: -0.605
- glycan array binding signal (z-score) [8]: -0.662
- glycan array binding signal (z-score) [9]: 0.238
- glycan array binding signal (z-score) [10]: 0.155
- glycan array binding signal (z-score) [11]: 0.053
- glycan array binding signal (z-score) [12]: -0.78
- glycan array binding signal (z-score) [13]: -0.713
- glycan array binding signal (z-score) [14]: -0.916
- glycan array binding signal (z-score) [15]: -0.966
- glycan array binding signal (z-score) [16]: -0.636
- glycan array binding signal (z-score) [17]: -0.696
- glycan array binding signal (z-score) [18]: 0.474
- glycan array binding signal (z-score) [19]: -0.326
- glycan array binding signal (z-score) [20]: -0.789
- glycan array binding signal (z-score) [21]: -0.948
- glycan array binding signal (z-score) [22]: -0.819
- glycan array binding signal (z-score) [23]: -0.989
- glycan array binding signal (z-score) [24]: -0.332
- glycan array binding signal (z-score) [25]: -0.181
- glycan array binding signal (z-score) [26]: -0.861
- glycan array binding signal (z-score) [27]: -0.315
- glycan array binding signal (z-score) [28]: -0.326
- glycan array binding signal (z-score) [29]: -0.421
- glycan array binding signal (z-score) [30]: -0.548
- glycan array binding signal (z-score) [31]: 0.4
- glycan array binding signal (z-score) [32]: -0.755
- glycan array binding signal (z-score) [33]: -0.729
- glycan array binding signal (z-score) [34]: -0.95
- glycan array binding signal (z-score) [35]: -0.791
- glycan array binding signal (z-score) [36]: -0.351
- glycan array binding signal (z-score) [37]: -0.551
- glycan array binding signal (z-score) [38]: 0.177
- glycan array binding signal (z-score) [39]: -0.835
- glycan array binding signal (z-score) [40]: -0.571
- glycan array binding signal (z-score) [41]: 0.19
- glycan array binding signal (z-score) [42]: 0.052
- glycan array binding signal (z-score) [43]: -0.559
- glycan array binding signal (z-score) [44]: -0.113
- glycan array binding signal (z-score) [45]: -0.941
